# Results: US20060148715A1, “Structural requirements for STAT3 binding and recruitment to phosphotyrosine ligands” (BAYLOR COLLEGE OF MEDICINE, priority 2004, published 2006)
# Amino acid sequences for entries named in this document (tags omitted).
# UniProt P40763, whole entry: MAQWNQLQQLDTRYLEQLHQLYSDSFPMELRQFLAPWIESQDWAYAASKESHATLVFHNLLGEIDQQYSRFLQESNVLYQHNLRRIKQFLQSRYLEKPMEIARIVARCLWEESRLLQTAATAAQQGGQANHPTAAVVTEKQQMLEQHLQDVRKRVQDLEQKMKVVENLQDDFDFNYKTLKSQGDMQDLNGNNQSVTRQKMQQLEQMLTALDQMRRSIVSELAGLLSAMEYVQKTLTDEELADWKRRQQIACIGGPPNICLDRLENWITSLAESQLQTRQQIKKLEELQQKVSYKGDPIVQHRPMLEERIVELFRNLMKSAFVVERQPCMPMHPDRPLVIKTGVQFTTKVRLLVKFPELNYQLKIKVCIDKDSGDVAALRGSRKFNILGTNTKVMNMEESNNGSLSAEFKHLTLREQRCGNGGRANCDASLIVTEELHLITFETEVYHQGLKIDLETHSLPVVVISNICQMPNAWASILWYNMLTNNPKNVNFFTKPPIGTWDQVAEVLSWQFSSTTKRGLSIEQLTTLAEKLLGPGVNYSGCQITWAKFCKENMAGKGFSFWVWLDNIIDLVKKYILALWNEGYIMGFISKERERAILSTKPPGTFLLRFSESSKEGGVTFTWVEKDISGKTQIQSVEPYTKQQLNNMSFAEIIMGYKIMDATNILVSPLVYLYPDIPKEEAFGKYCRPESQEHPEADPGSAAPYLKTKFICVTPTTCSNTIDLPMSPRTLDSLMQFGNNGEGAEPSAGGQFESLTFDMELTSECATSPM
# UniProt P40763, whole entry Y657F/C687A/S691A/Q692L: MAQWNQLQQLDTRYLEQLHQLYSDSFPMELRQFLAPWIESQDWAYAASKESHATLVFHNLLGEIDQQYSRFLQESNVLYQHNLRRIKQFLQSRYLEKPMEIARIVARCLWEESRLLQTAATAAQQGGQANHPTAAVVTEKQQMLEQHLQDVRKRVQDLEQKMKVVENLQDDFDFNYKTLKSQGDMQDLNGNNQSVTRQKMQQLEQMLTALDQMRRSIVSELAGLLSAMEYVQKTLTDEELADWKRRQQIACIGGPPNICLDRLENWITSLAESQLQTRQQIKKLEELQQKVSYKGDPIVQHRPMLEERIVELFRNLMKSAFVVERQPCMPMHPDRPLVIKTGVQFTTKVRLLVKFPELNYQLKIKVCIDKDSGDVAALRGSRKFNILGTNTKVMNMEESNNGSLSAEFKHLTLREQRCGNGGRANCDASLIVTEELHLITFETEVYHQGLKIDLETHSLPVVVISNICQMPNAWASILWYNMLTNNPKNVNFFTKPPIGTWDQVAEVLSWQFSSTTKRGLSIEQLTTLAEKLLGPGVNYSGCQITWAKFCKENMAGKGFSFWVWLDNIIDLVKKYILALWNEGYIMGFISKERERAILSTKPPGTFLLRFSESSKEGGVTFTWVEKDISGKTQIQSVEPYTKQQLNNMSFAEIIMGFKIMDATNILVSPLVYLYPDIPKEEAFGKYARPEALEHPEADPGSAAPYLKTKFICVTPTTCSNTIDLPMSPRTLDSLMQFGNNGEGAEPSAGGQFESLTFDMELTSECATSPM
# UniProt P40763, whole entry R609L/E638L/Y640F/Y657F: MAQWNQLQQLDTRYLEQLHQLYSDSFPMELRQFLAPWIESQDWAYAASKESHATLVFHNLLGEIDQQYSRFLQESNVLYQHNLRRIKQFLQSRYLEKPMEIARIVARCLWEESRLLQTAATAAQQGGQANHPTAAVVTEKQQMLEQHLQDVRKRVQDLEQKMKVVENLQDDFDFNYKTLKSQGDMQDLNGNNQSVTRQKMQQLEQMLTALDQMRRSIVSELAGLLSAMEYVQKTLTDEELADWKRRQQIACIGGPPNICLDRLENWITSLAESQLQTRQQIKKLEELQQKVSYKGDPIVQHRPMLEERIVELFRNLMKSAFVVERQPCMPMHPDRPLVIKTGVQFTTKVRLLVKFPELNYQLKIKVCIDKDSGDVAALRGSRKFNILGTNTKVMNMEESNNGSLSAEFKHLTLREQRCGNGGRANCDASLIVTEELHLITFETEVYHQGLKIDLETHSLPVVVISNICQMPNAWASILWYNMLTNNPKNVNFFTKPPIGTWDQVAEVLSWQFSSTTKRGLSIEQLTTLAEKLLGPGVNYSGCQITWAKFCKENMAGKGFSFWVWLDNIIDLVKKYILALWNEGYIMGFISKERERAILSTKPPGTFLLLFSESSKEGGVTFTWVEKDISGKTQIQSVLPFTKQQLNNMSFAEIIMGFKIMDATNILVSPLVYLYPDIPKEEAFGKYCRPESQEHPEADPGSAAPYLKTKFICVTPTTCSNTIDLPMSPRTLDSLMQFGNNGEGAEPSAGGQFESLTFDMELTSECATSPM
# UniProt P40763, whole entry K591L/E638L/Y640F/Y657F: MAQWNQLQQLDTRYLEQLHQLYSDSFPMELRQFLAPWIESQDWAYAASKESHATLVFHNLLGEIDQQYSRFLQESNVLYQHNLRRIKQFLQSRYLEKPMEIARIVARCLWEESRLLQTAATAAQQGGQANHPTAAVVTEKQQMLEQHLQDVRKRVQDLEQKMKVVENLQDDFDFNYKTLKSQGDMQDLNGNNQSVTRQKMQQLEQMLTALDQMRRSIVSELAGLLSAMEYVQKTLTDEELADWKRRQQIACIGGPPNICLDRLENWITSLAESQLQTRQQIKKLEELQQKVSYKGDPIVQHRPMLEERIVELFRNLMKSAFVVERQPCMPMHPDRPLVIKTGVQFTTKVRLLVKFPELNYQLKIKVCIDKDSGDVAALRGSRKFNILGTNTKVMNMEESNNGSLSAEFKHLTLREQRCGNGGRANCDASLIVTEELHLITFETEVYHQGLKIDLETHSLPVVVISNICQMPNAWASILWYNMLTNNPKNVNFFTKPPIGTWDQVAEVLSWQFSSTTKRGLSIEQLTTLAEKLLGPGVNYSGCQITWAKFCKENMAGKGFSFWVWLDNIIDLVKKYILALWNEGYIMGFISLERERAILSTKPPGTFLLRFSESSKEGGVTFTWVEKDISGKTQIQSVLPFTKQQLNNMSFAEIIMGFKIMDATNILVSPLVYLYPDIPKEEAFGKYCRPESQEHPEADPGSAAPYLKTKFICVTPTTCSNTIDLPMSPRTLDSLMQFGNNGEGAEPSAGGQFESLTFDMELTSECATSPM
# UniProt P40763, whole entry E638P: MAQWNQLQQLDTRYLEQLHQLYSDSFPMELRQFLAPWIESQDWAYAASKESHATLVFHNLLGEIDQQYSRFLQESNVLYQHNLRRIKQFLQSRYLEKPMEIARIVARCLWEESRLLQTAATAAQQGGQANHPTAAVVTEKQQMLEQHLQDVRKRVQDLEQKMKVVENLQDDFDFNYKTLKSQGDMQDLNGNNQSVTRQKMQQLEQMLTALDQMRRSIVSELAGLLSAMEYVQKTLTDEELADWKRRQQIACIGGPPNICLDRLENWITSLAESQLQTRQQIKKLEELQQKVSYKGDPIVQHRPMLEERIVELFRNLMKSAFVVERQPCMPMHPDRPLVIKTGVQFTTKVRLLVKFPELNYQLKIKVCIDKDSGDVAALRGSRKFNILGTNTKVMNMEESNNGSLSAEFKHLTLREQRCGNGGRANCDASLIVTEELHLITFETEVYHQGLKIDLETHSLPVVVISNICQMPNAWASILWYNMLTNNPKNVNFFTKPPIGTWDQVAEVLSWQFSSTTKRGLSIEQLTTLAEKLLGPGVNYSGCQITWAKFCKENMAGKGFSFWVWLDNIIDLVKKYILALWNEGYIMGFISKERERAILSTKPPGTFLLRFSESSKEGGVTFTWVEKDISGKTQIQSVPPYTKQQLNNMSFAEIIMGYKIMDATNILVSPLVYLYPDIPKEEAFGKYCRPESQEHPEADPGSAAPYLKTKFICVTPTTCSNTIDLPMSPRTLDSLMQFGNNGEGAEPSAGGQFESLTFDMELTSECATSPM
# UniProt P40763, whole entry E638L/Y640F/Y657F/C687A/S691A/Q692L: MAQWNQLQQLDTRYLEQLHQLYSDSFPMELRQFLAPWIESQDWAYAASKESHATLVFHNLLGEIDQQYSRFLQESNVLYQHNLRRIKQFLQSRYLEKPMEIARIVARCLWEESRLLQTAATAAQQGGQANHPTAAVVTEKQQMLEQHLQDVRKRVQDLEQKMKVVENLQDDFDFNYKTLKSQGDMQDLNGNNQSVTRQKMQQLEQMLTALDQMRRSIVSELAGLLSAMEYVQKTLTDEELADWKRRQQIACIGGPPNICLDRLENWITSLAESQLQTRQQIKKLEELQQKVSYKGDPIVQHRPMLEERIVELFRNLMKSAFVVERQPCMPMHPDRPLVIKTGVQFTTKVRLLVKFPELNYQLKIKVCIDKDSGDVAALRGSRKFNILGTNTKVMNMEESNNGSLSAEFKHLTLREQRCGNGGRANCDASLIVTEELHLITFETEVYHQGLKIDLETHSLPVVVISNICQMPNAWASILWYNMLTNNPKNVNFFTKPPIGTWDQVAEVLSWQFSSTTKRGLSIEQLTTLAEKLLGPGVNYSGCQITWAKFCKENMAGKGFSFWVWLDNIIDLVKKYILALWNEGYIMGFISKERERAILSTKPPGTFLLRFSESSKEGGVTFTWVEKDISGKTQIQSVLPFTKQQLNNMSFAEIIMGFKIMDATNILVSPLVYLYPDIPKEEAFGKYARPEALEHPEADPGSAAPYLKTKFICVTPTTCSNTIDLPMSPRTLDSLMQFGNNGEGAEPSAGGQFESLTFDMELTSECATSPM
# UniProt P40763, whole entry E638L/Y640F/Y657F: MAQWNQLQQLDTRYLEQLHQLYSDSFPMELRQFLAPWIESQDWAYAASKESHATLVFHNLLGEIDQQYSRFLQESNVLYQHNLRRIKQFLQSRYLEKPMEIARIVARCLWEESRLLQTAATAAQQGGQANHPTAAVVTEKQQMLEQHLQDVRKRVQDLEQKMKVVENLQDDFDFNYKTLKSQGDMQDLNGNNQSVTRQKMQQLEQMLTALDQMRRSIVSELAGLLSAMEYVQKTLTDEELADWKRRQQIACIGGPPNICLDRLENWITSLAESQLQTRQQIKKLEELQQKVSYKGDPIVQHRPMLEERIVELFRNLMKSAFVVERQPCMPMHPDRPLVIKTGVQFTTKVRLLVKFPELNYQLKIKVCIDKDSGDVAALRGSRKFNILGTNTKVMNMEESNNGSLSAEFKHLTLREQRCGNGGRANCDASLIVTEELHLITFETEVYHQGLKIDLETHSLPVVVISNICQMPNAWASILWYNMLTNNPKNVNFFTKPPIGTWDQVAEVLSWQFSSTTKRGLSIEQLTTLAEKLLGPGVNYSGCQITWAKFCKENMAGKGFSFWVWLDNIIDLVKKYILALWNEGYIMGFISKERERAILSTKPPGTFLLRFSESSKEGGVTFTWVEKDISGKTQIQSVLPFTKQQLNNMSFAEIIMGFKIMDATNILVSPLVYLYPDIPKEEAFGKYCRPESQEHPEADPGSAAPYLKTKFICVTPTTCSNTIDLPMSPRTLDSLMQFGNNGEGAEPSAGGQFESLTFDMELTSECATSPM
# Part of at least one peptide drawing is inferred or uncertain, most often the ends. Some compounds share one wording; it may come from a single statement.
# Experiments:
# wild type Stat3 [1] = molecular target: T1, wild type Stat3 (Homo sapiens, UniProt P40763); test: Phosphopeptide affinity immunoblot (peptide pull-down); format: binding; conditions: purified wild type Stat3
# T1 construct: made in house; host or cells: Sf9 insect cells (baculovirus, pFastBac1)
# Procedure: (§1) NeutrAvidin agarose (40 μl; Pierce) was incubated with 10 μg of biotinylated peptide in 300 μl of Buffer A (20 mM HEPES pH 7.5, 20 mM NaF, 1 mM Na3VO4, 1 mM Na4P2O7, 1 mM EDTA, 1 mM EGTA, 20% glycerol, 0.05% NP-40, 1 mM DTT, 1 μg/ml leupeptin, 1 μg/ml aprotinin, 0.5 mM phenylmethylsulfonyl fluoride, 100 mM NaCl) at 4° C. for 2 h and washed with Buffer A 3 times. The NeutrAvidin-peptide complex was then mixed with His-tagged Stat3 protein (5 μg) in 1 ml of Buffer A (without NaCl and NP-40) at 4° C. for 2 h and washed thoroughly. Bound proteins were separated and immunoblotted using Stat3 monoclonal antibody (mAb).
# Each peptide was incubated with equal amounts of purified wild type Stat3 protein in peptide pull-down assays (FIG. 1). NeutrAvidin agarose was incubated with the indicated biotinylated peptides (see Table 2 for sequence) or no peptide (CON) as control, washed thoroughly and mixed with identical amount of wild type Stat3. Bound proteins were separated by SDS-PAGE and immunoblotted using Stat3 mAb. Lane ST represents purified wild type Stat3 (0.6 μg) loaded directly onto the gel as positive control. […] Thus, Q at the +3 position of Y1068 phosphopeptide is required for Stat3 binding and appears to be as important for Stat3 binding as phosphorylation on tyrosine. […]
# Stat3-4M [2] = molecular target: T2, Stat3-4M (Homo sapiens, UniProt P40763, C687A/Q692L/S691A/Y657F); test: as above; format: binding; conditions: compared with wild type Stat3
# T2 construct: made in house; host or cells: Sf9 insect cells (baculovirus, pFastBac1)
# Procedure: as §1
# NeutrAvidin agarose was incubated with the indicated biotinylated peptides (see Table 2 for exemplary sequences) or no peptide (CON) as control, washed thoroughly and mixed with identical amounts of wild type or mutant Stat3 proteins as indicated. Bound proteins were separated by SDS-PAGE and immunoblotted using Stat3 mAb. Lane ST represents purified wild type Stat3 (0.6 μg) loaded directly onto the gel as positive control.
# Stat3 proteins in which mutations were introduced to alter side chains from charged or polar to non-polar within amino acid residues were predicted in each model to be critical for Stat3 binding (FIG. 1B). The recombinant Stat3 proteins were expressed in Sf9 insect cells and purified to equivalent levels using Ni-NTA resin (FIG. 1C).
# Stat3-3M+R609L [3] = molecular target: T3, Stat3-3M+R609L (Homo sapiens, UniProt P40763, E638L/R609L/Y640F/Y657F); test: Mirror resonance affinity assay (resonant mirror biosensor); format: binding
# T3 construct: made in house; host or cells: Sf9 insect cells (baculovirus, pFastBac1)
# Stat3-3M+K591L [4] = molecular target: T4, Stat3-3M+K591L (Homo sapiens, UniProt P40763, E638L/K591L/Y640F/Y657F); test: Phosphopeptide affinity immunoblot (peptide pull-down); format: binding
# T4 construct: made in house; host or cells: Sf9 insect cells (baculovirus, pFastBac1)
# Procedure: as §1
# (§2) To test the pocket 1 component of the two models and to ensure that the peptide pull-down system was sufficiently sensitive to detect reduced binding of Stat3 containing mutations in pocket 2, either K591L or R609L was added to the 3M mutant to generate Stat3-3M+K591L and Stat3-3M+R609L.
# (§3) To test the pocket 1 component of the two models and to ensure that our peptide pull-down system was sufficiently sensitive to detect reduced binding of Stat3 containing mutations in pocket 2, either K591L or R609L was added to the 3M mutant to generate Stat3-3M+K591L and Stat3-3M+R609L.
# Stat3-3M+R609L [5] = molecular target: T3, Stat3-3M+R609L; test: as above; format: binding
# Procedure: as §1, §2, §3
# Stat3-3M+K591L [6] = molecular target: T4, Stat3-3M+K591L; test: Mirror resonance affinity assay (resonant mirror biosensor); format: binding
# Stat3-E638P = molecular target: T5, Stat3-E638P (Homo sapiens, UniProt P40763, E638P); test: Phosphopeptide affinity immunoblot (peptide pull-down); format: binding
# T5 construct: made in house; host or cells: Sf9 insect cells (baculovirus)
# Procedure: as §1
# In FIG. 5C, NeutrAvidin agarose was incubated with the indicated biotinylated dodecapeptides (see Table 2 for sequence) or no peptide (CON) as control, washed thoroughly and mixed with wild type Stat3 protein. Bound proteins were separated by SDS-PAGE and immunoblotted using Stat3 mAb. Lane ST represents purified wild type Stat3 (0.6 μg) loaded directly onto the gel as a positive control.
# To test the contribution of the E638 amide hydrogen to binding to G-CSFR Y704 and Y744 phosphododecapeptide, Stat3-E638P was generated by site-directed mutagenesis, which eliminated the amide hydrogen donor predicted to bind with oxygen within the +3 Q side chain.
# wild type Stat3 [7] = molecular target: T1, wild type Stat3; test: Mirror resonance affinity assay (resonant mirror biosensor); format: binding
# Procedure: (§4) Kinetics experiments were performed using an lasys Auto+ resonant mirror biosensor (Affinity Sensor, Paramus, N.J.) (see Sadowski et. al, 1986). Briefly, two-welled cuvettes coated on the bottom of each well with biotin were purchased from Affinity Sensor and prepared for immobilization of biotinylated peptides by coating each surface with 0.04 mg/ml NeutrAvidin (Pierce) and washing with PBS-T (20 mM Na Phosphate, 0.05% Tween-20). Biotinylated peptide (5 μg) was added into each well—experimental peptide to one well and control peptide to the other—and change in arc seconds monitored simultaneously in both wells using the biosensor until stable followed by washing with PBS-T. Real-time binding of Stat3 was conducted at 25° C. at a stir speed of 70 for 10 min starting at the lowest concentration of Stat3. The wells were washed out with three changes of 60 μl PBS-T, and dissociation was allowed to proceed for 5 min. Each well bottom was regenerated by washing with […] of 100 mM formic acid for 2 min and equilibrated with PBS-T for the next round of association assay. Data were collected automatically and analyzed with the FASTplot and GraFit software (see Sheinerman et. al, 2003).
# Mirror resonance affinity assay. Two cells of a biotin-coated cuvette pretreated with saturating amounts of NeutrAvidin. […] Wild type or mutated Stat3 protein was added in the concentrations indicated to each of the two cells and mirror resonance measurements recorded continuously for 10 min as shown.
# To obtain quantitative kinetic information about the binding of Stat3 to G-CSFR Y704 and Y744 including association rates (kass), disassociation rates (kdiss) and dissociation equilibrium constants (KD), real-time affinity measurements using a mirror resonance biosensor were performed. […] The interaction of peptides with Stat3 added at different concentrations was measured in real time as altered deflection of a laser light striking the bottom surface of the cuvette; the alterations in the deflection angle measured in arc seconds was analyzed with GraFit software. […]
# Stat3-6M = molecular target: T6, Stat3-6M (Homo sapiens, UniProt P40763, C687A/E638L/Q692L/S691A/Y640F/Y657F); test: as above; conditions: Stat3-6M binding to Y1068 PDP
# T6 construct: made in house; host or cells: Sf9 insect cells (baculovirus, pFastBac1)
# Procedure: as §4
# (§5) Mirror resonance affinity assay. Two cells of a biotin-coated cuvette pretreated with saturating amounts of NeutrAvidin. One well of the cuvette was pretreated with biotinylated phosphopeptide based on Y1068 (pY1068, left panel), while the other well was pretreated with biotinylated non-phosphorylated peptide Y1068 (Y1068, right panel) as a control for non-specific binding. Wild type or mutated Stat3 protein was added in the concentrations indicated to each of the two cells and mirror resonance measurements recorded continuously for 10 min as shown.
# Stat3-3M = molecular target: T7, Stat3-3M (Homo sapiens, UniProt P40763, E638L/Y640F/Y657F); test: as above; conditions: Stat3-3M binding to immobilised Y1068 PDP
# T7 construct: made in house; host or cells: Sf9 insect cells (baculovirus, pFastBac1)
# Procedure: as §4, §5
# Stat3-4M [8] = molecular target: T2, Stat3-4M; test: as above; conditions: Stat3-4M binding to Y1068 PDP
# Procedure: as §4, §5
# [9] = wild type Stat3 binding to immobilised Y1068 PDP, 25° C.
smiles,measurement,setting,value
"CC[C@H](C)[C@H](NC(=O)[C@H](Cc1ccc(OP(=O)(O)O)cc1)NC(=O)[C@H](CCC(=O)O)NC(=O)[C@@H]1CCCN1C(=O)[C@@H](NC(=O)[C@@H]1CCCN1C(=O)[C@H](CC(C)C)NC(=O)CCCCCNC(=O)CCCC[C@@H]1SC[C@@H]2NC(=O)N[C@@H]21)C(C)C)C(=O)N[C@@H](CC(N)=O)C(=O)N[C@@H](CCC(N)=O)C(=O)N[C@@H](CO)C(=O)N[C@H](C(=O)N1CCC[C@H]1C(=O)O)C(C)C [Y1068 PDP, LPVPE(pY)INQSVP]",Stat3 detected in peptide pull-down (Stat3 immunoblot),wild type Stat3 [1],prominent Stat3 band
same,level of Stat3-4M bound in peptide affinity immunoblot,Stat3-4M [2],equal to or greater than wild type Stat3
same,binding in real-time mirror resonance affinity curves,Stat3-3M+R609L [3],undetectable binding
same,binding of Stat3-3M+K591L in peptide pull-down,Stat3-3M+K591L [4],elimination of binding
same,binding of Stat3-3M+R609L in peptide pull-down,Stat3-3M+R609L [5],elimination of binding
same,binding in real-time mirror resonance affinity curves,Stat3-3M+K591L [6],undetectable binding
same,binding of Stat3-E638P in peptide affinity immunoblot,Stat3-E638P,no binding
same,higher affinity than Y1086 PDP,wild type Stat3 [7]; native and recombinant Stat3,2 fold
same,kass,wild type Stat3 [7]; [9],3073 M − 1 s − 1
same,kdiss,wild type Stat3 [7]; [9],0.7 ms − 1
same,kdiss,Stat3-6M,0.7 ± 0.3 ms − 1
same,kass,Stat3-6M; mean ± SEM of 2 experiments,2619 ± 674d M − 1 s − 1
same,kass,Stat3-3M,3371 M − 1 s − 1
same,kdiss,Stat3-3M,0.6 ms − 1
same,kdiss,Stat3-4M [8],0.8 ± 0.3 ms − 1
same,kass,Stat3-4M [8]; mean ± SEM of 2 experiments,2673 ± 481d M − 1 s − 1
